Reference: PubChem BioAssay AID602196 (INSERM, 2012)

- Purpose: 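Knock-downs that protect lung cancer cells from cisplatin or sensitise them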
- Cell system: human A549 lung cancer cells
- Knock-down reagent: siRNA pair against human genes
- Timing: 48 h transfection before cisplatin; time from cisplatin to read-out not stated
- Challenge: cisplatin at a dose killing half of control-siRNA cells; exact dose and duration not given
- Read-out: 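Shift in cisplatin death relative to control siRNA, from -50 (all cells die) to +50 (no cells die); siRNAs harmful on their own scored 0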
- Direction: two-siRNA summed score (-2 to +2): higher = both siRNAs protect from cisplatin killing; -2 means both sensitise; mean protection from cisplatin (shift in death): higher = protection from cisplatin killing
- Call rule: 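Each siRNA scores 0 if harmful alone by LDH or WST-1, otherwise +1 if it reduces and -1 if it increases cisplatin killing; a gene is active when both siRNAs agree (sum +2 or -2)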
- Meaning of the calls: active = both siRNAs shift cisplatin killing the same way; inactive = no consistent shift, or siRNA harmful alone
This is an unselected part of about 23,000 reagents tested. 455 of all reagents (2%) count as active. 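Active includes both protection and sensitisation; some change values fall well beyond the stated -50 to +50 range.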 A number with no mark means an inactive call. Not all columns of the deposit are shown. No sequences are given here. The record does not give: the amount of reagent.

LOC130773: two-siRNA summed score (-2 to +2) = 0; mean protection from cisplatin (shift in death) (%) = 3.3
OSCP1: two-siRNA summed score (-2 to +2) = 0; mean protection from cisplatin (shift in death) (%) = 16.4
RPL37A: two-siRNA summed score (-2 to +2) = 0; mean protection from cisplatin (shift in death) (%) = 7.6
CEP41: two-siRNA summed score (-2 to +2) = 0; mean protection from cisplatin (shift in death) (%) = -5.1
CUL2: two-siRNA summed score (-2 to +2) = 0; mean protection from cisplatin (shift in death) (%) = -24.1
MAZ: two-siRNA summed score (-2 to +2) = 1; mean protection from cisplatin (shift in death) (%) = 16
CDKN2B: two-siRNA summed score (-2 to +2) = 0; mean protection from cisplatin (shift in death) (%) = 10.2
LOC441046: two-siRNA summed score (-2 to +2) = 0; mean protection from cisplatin (shift in death) (%) = 5.8
LOC402199: two-siRNA summed score (-2 to +2) = 0; mean protection from cisplatin (shift in death) (%) = 3.3
RXFP2: two-siRNA summed score (-2 to +2) = 1; mean protection from cisplatin (shift in death) (%) = 14.4
GAST: two-siRNA summed score (-2 to +2) = 0; mean protection from cisplatin (shift in death) (%) = 1.2
LURAP1L: two-siRNA summed score (-2 to +2) = 0; mean protection from cisplatin (shift in death) (%) = -0.3

2 entries from above, arranged by “two-siRNA summed score (-2 to +2)”, low to high:
OSCP1: two-siRNA summed score (-2 to +2) = 0; mean protection from cisplatin (shift in death) (%) = 16.4
RPL37A: two-siRNA summed score (-2 to +2) = 0; mean protection from cisplatin (shift in death) (%) = 7.6
